The values below are quoted from earlier work in patent publication US11660375B2, “Product and method for the treatment of bioprosthetic tissues” (Epygon, priority 2017, dated 2023).

SMILES strings stand for the structures.

The conditions of this data set: Glutaraldehyde-crosslinked cusps.

On to `CCO` [80% Ethanol, Ethanol], for which the “extraction of cholesterol and phospholipids” value was “almost all”.
